PubChem BioAssay AID504808, Drosophila RNAi Screening Center | 2011
In all, the deposit lists about 21,000 reagents; shown is a random part of those with a known target gene and a result. Over the whole deposit, 18 (0.084%) are marked active. 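Raw counts without plate normalisation, one of two replicates; the ratio scores behind the calls were not deposited.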 A number with no mark means an inactive call. A plus sign joins genes that one reagent is predicted to hit. Not stated in the record: the amount of reagent, the time to read-out.

Screen: 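Genes whose loss lifts activity of an E2F-responsive reporter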 (primary screen)
System: Drosophila S2 cells
Knock-down reagent: long dsRNA against Drosophila genes
Detection: 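Dual luciferase plate measurements; E2F-specific signal taken as firefly over Renilla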
Direction: E2F firefly: higher = more E2F reporter activity; Renilla normaliser: higher = more normaliser reporter signal
Hit rule: 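Called active if the normalised E2F reporter went up by over 50%; the cutoff is arbitrary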

gene knocked down | dsRNA | E2F firefly, rep 1 | Renilla normaliser, rep 1
CG15882 | DRSC19735 | 1.36e5 | 5823
Tbc1d22 | DRSC15867 | 59941 | 3306
peng | DRSC20583 | 1.36e5 | 6987
Fas3 | DRSC01638 | 1.21e5 | 5115
Fas3 | DRSC03326 | 89796 | 4089
l(2)37Bb | DRSC02088 | 87154 | 4184
Or19a | DRSC20684 | 1.40e5 | 6944
Rfx | DRSC16820 | 1.18e5 | 5225
ERp44 | DRSC20215 | 8398 | 856
Or67c | DRSC11242 | 1.20e5 | 6382
Cpr | DRSC03293 | 91545 | 3501
GstE12 | DRSC04047 | 1.03e5 | 3825
Pex10 | DRSC08599 | 70213 | 4014
RpL34a | DRSC15964 | 97128 | 5832
GAPcenA | DRSC10771 | 87981 | 3639
ms(2)35Ci | DRSC01460 | 1.40e5 | 5474
dysf | DRSC14529 | 1.27e5 | 6432
dysf | DRSC14895 | 89571 | 5325
dysf | DRSC14896 | 1.16e5 | 6743
dysf | DRSC14897 | 50305 | 4074
CG7322 | DRSC20036 | 1.35e5 | 5282
CG10584 | DRSC11624 | 1.33e5 | 7413
Npc2g | DRSC14296 | 1.33e5 | 5994
Gyc89Db | DRSC15009 | 76573 | 2740
Nup93-2 | DRSC16221 | 59096 | 3062
RpL40 | DRSC00782 | 1.07e5 | 141
Rcd4 | DRSC02597 | 1.40e5 | 4918
CG6236 | DRSC15999 | 70746 | 3669
Cap-G | DRSC06652 | 1.09e5 | 4091
Cap-G | DRSC06653 | 97371 | 4111
Ssdp | DRSC16211 | 1.50e5 | 5956
CG31407 | DRSC12761 | 80111 | 3737
CG9003 | DRSC07317 | 98244 | 4563
CG12164 | DRSC06115 | 86970 | 3817
CG31145 | DRSC13634 | 91437 | 2487
CG31145 | DRSC14206 | 82970 | 5190
CG31145 | DRSC14670 | 61329 | 5315
CG31145 | DRSC14671 | 91011 | 6372
Rint1 | DRSC11010 | 68810 | 3707
CG43901 | DRSC19397 | 1.16e5 | 5257
CG43901 | DRSC19652 | 64330 | 3561
ENGase | DRSC19952 | 46697 | 3054
ENGase | DRSC19953 | 1.97e5 | 8386
Hesr | DRSC19965 | 1.68e5 | 6555
CG2921 | DRSC04324 | 90769 | 3935
Patj | DRSC08712 | 72592 | 3530

In a second layout: entries from further up.
gene knocked down	dsRNA	E2F firefly, rep 1	Renilla normaliser, rep 1
CG7322	DRSC20036	1.35e5	5282
CG10584	DRSC11624	1.33e5	7413
Npc2g	DRSC14296	1.33e5	5994
Gyc89Db	DRSC15009	76573	2740
Nup93-2	DRSC16221	59096	3062
RpL40	DRSC00782	1.07e5	141
Rcd4	DRSC02597	1.40e5	4918
CG6236	DRSC15999	70746	3669
Cap-G	DRSC06652	1.09e5	4091
Cap-G	DRSC06653	97371	4111
Ssdp	DRSC16211	1.50e5	5956
CG31407	DRSC12761	80111	3737
CG9003	DRSC07317	98244	4563

More reagents follow:
gene knocked down | dsRNA | E2F firefly, rep 1 | Renilla normaliser, rep 1
CG6749 | DRSC10704 | 1.34e5 | 7449
CG30423 | DRSC04013 | 1.27e5 | 5554
CG6324 | DRSC19985 | 1.57e5 | 5887
CG4287 | DRSC15559 | 62879 | 3007
Mmp2 | DRSC06698 | 1.49e5 | 5530
DCTN6-p27 | DRSC02609 | 1.02e5 | 4226
Gr93a | DRSC14593 | 1.49e5 | 6555
Trim9 | DRSC02242 | 1.60e5 | 5560
CG32795 | DRSC18609 | 84814 | 5040
CG32795 | DRSC18610 | 1.18e5 | 5745
CG11300 | DRSC04104 | 1.02e5 | 4095
CG15306 | DRSC17993 | 63925 | 4565
CG15306 | DRSC18240 | 1.08e5 | 8339
betaTub56D | DRSC07583 | 1.33e5 | 4850
CG31296 | DRSC13092 | 88305 | 3208
Or59c | DRSC04633 | 1.15e5 | 4675
CG31525 | DRSC12004 | 96452 | 4072
CG4998 | DRSC10466 | 1.62e5 | 6193
TwdlN | DRSC15813 | 1.09e5 | 6789
trn | DRSC11407 | 1.30e5 | 5519
CG13438 | DRSC06398 | 91386 | 5036
Yif1 | DRSC15817 | 1.25e5 | 6530
Slimp | DRSC13656 | 74589 | 2642
CG12984 | DRSC11693 | 1.33e5 | 7344
CG9514 | DRSC20190 | 1.45e5 | 6343
CG9514 | DRSC20191 | 1.53e5 | 6688
Uck | DRSC13661 | 78970 | 2068
Uck | DRSC16028 | 99010 | 6694
CG9386 | DRSC16485 | 1.21e5 | 5810
5-HT7 | DRSC12635 | 1948 | 1084
CG42376 + cin | DRSC18752 | 1810 | 988
CG10286 | DRSC12520 | 83928 | 3695
CG13557 | DRSC04195 | 1.12e5 | 4292
Dfd | DRSC12593 | 1.57e5 | 7533
Lamtor2 + CG30120 | DRSC05726 | 1.54e5 | 6280
Lamtor2 + CG30120 | DRSC06922 | 1.33e5 | 5072
Tsp86D | DRSC15607 | 1.54e5 | 7717
Bap60 | DRSC19337 | 7206 | 788
